The series in a line: Evaluation of polymers: solubilization of donepezil base, appearance of solution. Format: physicochemical. To be noted: when polyvinylpyrrolidone is used.

As for `COc1cc2c(cc1OC)C(=O)C(CC1CCN(Cc3ccccc3)CC1)C2` (stereo not shown) [donepezil, 2-[(1-benzyl-4-piperidinyl)methyl]-5,6-dimethoxyindan-1-one], the Dissolution of donepezil entry is “completely dissolved”.
